Positions count from the first letter of the chain named. Construct, isoform or probe ends are uncertain for at least one entry. For some of these results: A weaker result is weaker than the reference pair of the same experiment. For some of these results: At least one verdict was read from the data and is not stated in words by the source. Protein sequences can lack the tags named with them.
Columns and labels:
Assay in all cases: EMSA
[1] = molecular target: T1, PANC27SC68SC87SC114SC154S (Arabidopsis thaliana) (UniProt Q9SX27); settings: 0.9 mM DTT; with or without 0.9 or 20 mM DTT or 2 mM diamide, 30 min in the dark before probe addition; protein translated in vitro; residues 1-452; label: 5' 32P
T1 sequence (looked up): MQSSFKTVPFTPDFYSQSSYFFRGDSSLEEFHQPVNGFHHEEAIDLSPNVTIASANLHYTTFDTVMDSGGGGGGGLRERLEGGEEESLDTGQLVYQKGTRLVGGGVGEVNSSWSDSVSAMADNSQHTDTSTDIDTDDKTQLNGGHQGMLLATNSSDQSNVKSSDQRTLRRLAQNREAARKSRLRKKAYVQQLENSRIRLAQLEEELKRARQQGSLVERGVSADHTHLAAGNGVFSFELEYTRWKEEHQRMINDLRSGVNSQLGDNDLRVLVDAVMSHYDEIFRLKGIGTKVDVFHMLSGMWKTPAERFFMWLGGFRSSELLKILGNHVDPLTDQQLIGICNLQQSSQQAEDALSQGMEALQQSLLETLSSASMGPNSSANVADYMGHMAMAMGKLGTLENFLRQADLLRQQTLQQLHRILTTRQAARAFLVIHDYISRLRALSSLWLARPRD

[2] = molecular target: T2, PANC340S (Arabidopsis thaliana) (UniProt Q9SX27); settings: with or without 0.9 or 20 mM DTT or 2 mM diamide, 30 min in the dark before probe addition, protein translated in vitro, residues 1-452, label: 5' 32P
T2 sequence (looked up): T1 sequence (looked up) with S27C, S68C, S87C, S114C, S154C, C340S

[3] = molecular target: T3, PANC87S (Arabidopsis thaliana) (UniProt Q9SX27); settings: with or without 0.9 or 20 mM DTT or 2 mM diamide, 30 min in the dark before probe addition, protein translated in vitro, residues 1-452, label: 5' 32P
T3 sequence (looked up): T1 sequence (looked up) with S27C, S68C, S114C, S154C

[4] = molecular target: T4, PANC27SC68S (Arabidopsis thaliana) (UniProt Q9SX27); settings: with or without 0.9 or 20 mM DTT or 2 mM diamide, 30 min in the dark before probe addition, protein translated in vitro, residues 1-452, label: 5' 32P
T4 sequence (looked up): T1 sequence (looked up) with S87C, S114C, S154C

[5] = molecular target: T5, PANC27SC68SC87SC114S (Arabidopsis thaliana) (UniProt Q9SX27); settings: with or without 0.9 or 20 mM DTT or 2 mM diamide, 30 min in the dark before probe addition, protein translated in vitro, residues 1-452, label: 5' 32P
T5 sequence (looked up): T1 sequence (looked up) with S154C

[6] = molecular target: T6, PANC68SC87S (Arabidopsis thaliana) (UniProt Q9SX27); settings: 2 mM diamide; with or without 0.9 or 20 mM DTT or 2 mM diamide, 30 min in the dark before probe addition; protein translated in vitro; residues 1-452; label: 5' 32P
T6 sequence (looked up): T1 sequence (looked up) with S27C, S114C, S154C

## AAGAATCTTTGATCACGTCATCACTCAGATATT (double strand)
[1]
  binding result: binds
[2]; 0.9 mM DTT
  binding result: binds
[2]; 2 mM diamide
  binding result: binds more weakly
[3]; 0.9 mM DTT
  binding result: binds
[3]; 2 mM diamide
  binding result: binds more weakly
[4]; 0.9 mM DTT
  binding result: binds
[4]; 2 mM diamide
  binding result: binds more weakly
[5]; 0.9 mM DTT
  binding result: binds
[5]; 2 mM diamide
  binding result: binds more weakly
[6]
  binding result: binds more weakly

From paper PMC4851370, “The N-Terminus of the Floral Arabidopsis TGA Transcription Factor PERIANTHIA Mediates Redox-Sensitive DNA-Binding”
